Laboratory results from patent publication US20190298728A1.
These are yes or no findings as the source states them, for the method shown. Some results given as binding are weak or reduced against the parent protein; the word gives no strength.

By UniProt entry, the sequences of proteins in these tests, tags left out.
UniProt P42338: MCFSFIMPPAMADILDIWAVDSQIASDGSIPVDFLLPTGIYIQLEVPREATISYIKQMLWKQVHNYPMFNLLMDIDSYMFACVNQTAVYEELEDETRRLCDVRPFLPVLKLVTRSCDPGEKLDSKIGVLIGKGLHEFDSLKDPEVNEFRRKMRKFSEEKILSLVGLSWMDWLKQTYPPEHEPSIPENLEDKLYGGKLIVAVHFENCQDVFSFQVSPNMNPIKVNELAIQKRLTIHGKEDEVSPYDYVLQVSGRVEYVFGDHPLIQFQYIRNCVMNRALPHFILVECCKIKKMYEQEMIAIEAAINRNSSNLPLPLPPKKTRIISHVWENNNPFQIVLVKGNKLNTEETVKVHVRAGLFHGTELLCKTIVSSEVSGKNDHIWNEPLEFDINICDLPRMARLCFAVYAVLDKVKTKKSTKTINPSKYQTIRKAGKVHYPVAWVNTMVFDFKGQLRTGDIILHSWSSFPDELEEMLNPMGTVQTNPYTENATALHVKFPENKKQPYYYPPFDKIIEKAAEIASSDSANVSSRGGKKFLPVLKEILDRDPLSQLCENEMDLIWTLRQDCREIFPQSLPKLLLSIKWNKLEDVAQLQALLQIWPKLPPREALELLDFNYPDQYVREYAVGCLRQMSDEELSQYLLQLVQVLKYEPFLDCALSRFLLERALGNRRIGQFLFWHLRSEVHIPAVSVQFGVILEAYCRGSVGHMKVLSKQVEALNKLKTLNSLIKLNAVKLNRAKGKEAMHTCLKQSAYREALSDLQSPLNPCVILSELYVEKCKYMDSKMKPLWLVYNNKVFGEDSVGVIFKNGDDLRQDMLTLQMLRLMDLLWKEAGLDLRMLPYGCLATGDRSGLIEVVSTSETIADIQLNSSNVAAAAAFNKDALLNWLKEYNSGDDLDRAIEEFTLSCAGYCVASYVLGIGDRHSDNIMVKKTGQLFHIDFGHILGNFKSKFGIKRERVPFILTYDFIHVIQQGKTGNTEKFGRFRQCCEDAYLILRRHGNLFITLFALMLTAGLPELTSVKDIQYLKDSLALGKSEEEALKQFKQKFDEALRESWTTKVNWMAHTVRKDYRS
UniProt P46109: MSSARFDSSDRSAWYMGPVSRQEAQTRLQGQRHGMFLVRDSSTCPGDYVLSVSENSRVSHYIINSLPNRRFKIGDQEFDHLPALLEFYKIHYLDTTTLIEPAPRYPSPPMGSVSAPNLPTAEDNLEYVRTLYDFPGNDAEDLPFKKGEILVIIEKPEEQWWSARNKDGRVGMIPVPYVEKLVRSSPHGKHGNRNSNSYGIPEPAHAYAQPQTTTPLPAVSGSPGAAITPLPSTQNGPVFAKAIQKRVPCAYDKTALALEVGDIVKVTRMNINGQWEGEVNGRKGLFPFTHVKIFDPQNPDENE

Biological target: PI3Kβ (p110β catalytic isoform of PI3K, encoded by PIK3CB) (UniProt P42338)
Assay: taptag (tandem affinity tag) purification of p110β binding proteins

CRKL (from UniProt P46109 1-303) was tested, and the binding was “binds”.
